We go through one compound from patent publication EP4775574A1, “FURAN RING-CONTAINING COMPOUND, PHARMACEUTICAL COMPOSITION THEREOF, AND USE THEREOF” (Wuhan Xirui Pharmaceutical Technology Co., Ltd, priority 2023, dated 2025).

The test system of the test is KM mouse acetic acid-induced writhing model. Nature of the test: Analgesic efficacy in mouse acetic acid-induced writhing model. It counts as in vivo, KM mice. Conditions: 100 mg/kg intragastric, single dose, writhes within 20 min, p < 0.05 vs solvent control. How it is done: 1. Objective: The analgesic efficacy of the example was evaluated in a KM mouse acetic acid-induced writhing model. 2. Experimental methods: 2.1 Experimental drugs: The compounds in examples of the present disclosure and reference compound were self-prepared. Naproxen, Shanghai Yuanye Bio-Technology Co., Ltd., Catalog No. S63435. It was prepared using a solvent (Tween 80 + 0.5% MC (v:v = 1:99 pH = 3)). 2.2 Experimental animals: Male KM mice were purchased from Hubei Provincial Center for Disease Control and Prevention (Hubei Provincial Academy of Preventive Medicine), weighing 20 to 25 g at the time of purchase. 2.3 Experimental grouping: Table 6: Efficacy test grouping of compounds in the acetic acid-induced writhing model
2.5 Data collection and analysis • Data were collected using Excel software. • Data were analyzed using Prism (Graph pad software, Inc.) software. 3. Results Table 7: Analgesic efficacy results of compounds in the mouse acetic acid-induced writhing pain model
Background: Writhing tests count abdominal constrictions after an irritant is injected.

As to `COc1ccc2cc([C@H](C)C(=O)O)ccc2c1` [Naproxen], the Number of writhes reads like this: (first group set (solvent control 16.11 ± 5.84)) 8.50 ± 4.50; (second group set (solvent control 20.11 ± 3.55)) 5.86 ± 3.53.
